Results: PubChem BioAssay AID540276 (National Center for Advancing Translational Sciences (NCATS), 2011)
In all, about 300,000 compounds went through this assay and about 5,400 (1.8%) were called active. This list was built around the results that the source calls inconclusive (neither active nor inactive); the mix of calls is not that of the screen. Calls follow the shape of the full dose curve; tested in HEK293 cells. Potencies beside an inconclusive call are fits to weak or partial responses and may not hold up.
% is scaled to controls: 0 for no effect and ±100 for the full control effect; potency is read from the fitted curve at half-maximal effect.

Experiment: qHTS for inhibitors of binding or entry into cells for Marburg Virus
Details: Marburg virus pseudotyped entry inhibition, cell reporter; activity change, negative = inhibition: at 37.8 µM (top of the series) unless noted
With `Cc1ccnc(Nc2nc(-c3sc(C)nc3C)cs2)c1` the Potency was active: 5.62 µM. In the case of `O=C(O)c1c(Cl)c(Cl)c(Cl)c(Cl)c1C(=O)N1CCCCCC1`, the “activity change, negative = inhibition” value was inactive: -15.4% [at 46.1 µM]. For `COc1ccc(C2CN(C)CC2C(=O)c2ccc(C)cc2)cc1Cl` (configuration not stated), the Potency was inconclusive: 10 µM [inhibitor, partial curve]. With `CC(C)(Oc1ccc(Cl)cc1)C(=O)NC1CCSC1=O` (configuration not stated) the “activity change, negative = inhibition” value was inactive: -1.07%. With `CCC(C)(C)n1nnnc1C(c1ccccc1)N1CCN(Cc2ccccc2)CC1` (configuration not stated) the “activity change, negative = inhibition” value was inactive: 1.46% [at 46.1 µM]. With `CCc1noc(C)c1C(=O)Nc1sc(C(=O)N(C)C)c(C)c1C(=O)OC` the Potency was inconclusive: 2.31 µM [inhibitor, partial curve, poor fit]. With `COc1ccc(NC(=O)C(c2ccc(OC)cc2)N(C)C(=O)Cc2cccs2)cc1` (configuration not stated) the Potency was inconclusive: 0.0891 µM [activator, full curve, poor fit]. For `O=C(O)c1ccc(CSC2CCCCC2)cc1`, the “activity change, negative = inhibition” value was inactive: 12.1% [at 46.1 µM]. With `Cc1[nH]n(C(N)=S)c(=O)c1N=Nc1ccc2ccccc2c1` the Potency was inconclusive: 7.08 µM [inhibitor, full curve, poor fit]. With `CCCCn1c(=O)c2c(O)cc(=O)oc2c2ccccc21` the Potency was inconclusive: 1.41 µM [activator, partial curve, poor fit]. For `Cc1onc(-c2ccccc2Cl)c1-c1nc(-c2ccccn2)no1`, the Potency was inconclusive: 1.26 µM [inhibitor, single point]. In the case of `CCc1ccc(NC(=O)c2cnccn2)cc1`, the Potency was inconclusive: 7.94 µM [inhibitor, partial curve, poor fit]. In the case of `CN(C)c1ccc(/C=C/C(=O)c2cccnc2)cc1`, the Potency was inconclusive: 5.62 µM [activator, single point]. In the case of `O=C(CCCc1cccs1)Nc1nccs1`, the Potency was inconclusive: 7.94 µM [activator, partial curve, poor fit]. For `Cc1ccc2nc(SCC(=O)Nc3nnc(SCC(N)=O)s3)[nH]c2c1`, the “activity change, negative = inhibition” value was inactive: 20.6%. With `CCCCN(CCCNC(=O)c1cc(Nc2ccc(OC)cc2OC)nc2ccccc12)Cc1ccccc1` the Potency was inconclusive: 22.4 µM [inhibitor, single point]. With `O=C1c2ccccc2C(=O)N1CCCCCCN1C(=O)c2ccccc2C1=O` the “activity change, negative = inhibition” value was inactive: 11.3% [at 46.1 µM]. In the case of `Cc1cc(Cl)ccc1Oc1ncc(-c2ccc(Cl)cc2)cn1`, the “activity change, negative = inhibition” value was inactive: 7.33%. With `NC(=O)NNC1=Nc2cccc3cccc1c23` the “activity change, negative = inhibition” value was inactive: 4.8% [at 46.1 µM]. With `Clc1ccc2c(c1)C(c1ccccc1Cl)=NCc1nnc(Br)n1-2` the Potency was inconclusive: 35.5 µM [inhibitor, single point]. For `CCCn1c(=O)c(C(=O)N/N=C/c2ccccc2F)c(O)c2ccccc21`, the “activity change, negative = inhibition” value was inactive: -8.92% [at 46.1 µM]. With `O=C(NCc1ccco1)c1cc2ccc(O)cc2oc1=O` the Potency was inconclusive: 35.5 µM [inhibitor, single point].
